The nature of this assay: qHTS Assay for Lipid Storage Modulators in Drosophila S3 Cells.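 On cell number change: cells counted by Cell Tracker Red CMTPX staining in the red channel.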 As to conditions: BODIPY lipid droplet fluorescence, 18-24 h; for cell number change: measured here: cell count max response, cells fed with added oleic acid. The gist of the method:
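Laser-scanning cytometry quantifies lipid droplet accumulation (500–530 nm total intensity; droplet/cell object ratio) in oleic acid-fed (400 uM added) Drosophila S3 cells treated with a concentration series. 20 uM Triacsin C defined 100% inhibition.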

[1] abbreviates: measured here: cell number channel AC50, cells fed with added oleic acid.
Setting [2] is: measured here: lipid fluorescence (Fed channel) AC50, cells fed with added oleic acid.

Our source for the cell number change and AC50 values is PubChem BioAssay AID2685 (National Center for Advancing Translational Sciences (NCATS), 2010).

Each structure is given as a SMILES string. Some of the results follow. The main result of the screen is listed elsewhere. These columns were measured beside it and carry no call. Compounds called inactive in the main read-out are mostly missing here. The note in brackets gives the kind of curve behind each potency; many fits are weak.

As a reminder, the AC50 is the midpoint of the concentration-response curve, whichever way the signal moves. A low value points to greater potency. Regarding `Cc1cccc(NC(=O)CC2CCC2)c1`, the cell number change is -50%. Moreover, the AC50 under setting [1] is 29.1 µM [falling, single point]. Take `CCCNCC1C(Oc2ccc(Cl)cc2)C(=O)N1c1ccccc1C` (stereo unspecified): the cell number change was -9.29%. For the same compound, the AC50 under setting [1] was 0.92 µM [falling, full curve]. For the same compound, under setting [2], the AC50 was 6.51 µM [falling, single point]. For `O=C(N/N=C/c1ccccc1O)c1cccc2ccccc12`, the cell number change is -39.6%. Also, the AC50 under setting [1] is 29.1 µM [falling, single point]. As for `COc1ccccc1C(=O)NCCNc1nc2cc(C)cc(C)c2cc1C#N`, the cell number change is -0.676%. Moreover, the AC50 under setting [2] is 29.1 µM [falling, single point]. Turning to `Cc1cccc(NC(=O)CSc2nnc(CNC(=O)c3ccc(S(=O)(=O)N(C)C)cc3)n2-c2ccccc2)c1`, the AC50 under setting [2] was 2.91 µM [rising, full curve]. As to `O=c1cc(CN2CCOCC2)c2c(ccc3ccccc32)o1`, the AC50 under setting [1] is 5.8 µM [rising, single point] and the AC50 under setting [2] is 0.651 µM [rising, full curve, poor fit]. For `O=C(COC(=O)C1CCN(S(=O)(=O)c2ccccc2)CC1)NCCc1ccccc1`, the cell number change is -46.8%. Moreover, the AC50 under setting [1] is 18.4 µM [falling, single point]. Also, under setting [2], the AC50 is 16.4 µM [falling, single point]. For the compound `COc1ccc(S(=O)(=O)NCC2CCCO2)cc1NC(=O)c1ccccc1F` (stereo unspecified), the AC50 under setting [2] was 18.4 µM [falling, partial curve]. For the compound `COc1cccc(CN(C)C(=O)c2csc3c2CCCC3)c1OC`, the cell number change is -0.677%.

Consider `COc1ccc(CN(C)CC(O)COC(c2ccccc2)c2ccccc2)c(OC)c1OC` (stereo unspecified), for which the cell number change was found to be 5.13%.

As to `CCNC(=O)CSc1nnc(-c2ccccc2)n1-c1ccc(OCC)cc1`, the cell number change stood at 4.34%. Also, the AC50 under setting [1] is 0.0731 µM [rising, full curve, poor fit]. `COCCn1c(SC(C)C(=O)Nc2ccc(Cl)cn2)nnc1-c1ccncc1` (stereo unspecified): the cell number change came to 24.7%. Regarding `O=S(=O)(c1ccc2ccccc2c1)N1CCc2ccccc21`, the cell number change is 11.9%. The AC50 under setting [2] is 29.1 µM [rising, single point]. `Cc1ccc2nc(-c3ccncc3)c(Nc3ccccc3)n2c1`: the cell number change is 0.122%. Also, the AC50 under setting [2] is 2.31 µM [rising, single point]. Consider `Cc1nnsc1S(=O)(=O)c1ccccc1`, for which the cell number change was found to be 16.9%. Under setting [2], the AC50 is 8.2 µM [rising, partial curve]. Turning to `Cc1ccc(NC(=O)CO/N=C/c2ccc(N(C)C)cc2)cc1`, the cell number change stood at 42.9%. Also, the AC50 under setting [1] was 7.31 µM [rising, partial curve]. Also, the AC50 under setting [2] was 13 µM [falling, partial curve]. On to `CC(=NCCN1CCOCC1)C1=C(O)c2ccccc2C1=O`, for which the cell number change is 3.63%. The same measure, in the same setting: with `CCCNC1CCS(=O)(=O)C1` (stereo unspecified) the figure was -3.91%. With `COc1ccc(Cl)cc1Nc1nc(C)nc2c1nnn2Cc1ccccc1`, the cell number change was 8.29%. For the same compound, the AC50 under setting [2] is 0.517 µM [rising, full curve, poor fit]. On to `COc1ccc(NC(=O)COC(=O)c2ccc(OCc3ccccc3Cl)c(OC)c2)c(OC)c1`, for which the cell number change was determined as 12.3%. Further, the AC50 under setting [2] was 0.58 µM [rising, full curve]. Consider `COc1ccc2c3c(cccc13)N(C)N=C2C`, for which the cell number change was -0.41%. Further, the AC50 under setting [2] is 0.651 µM [rising, single point]. Regarding `CC(C)OP(=O)(OC(C)C)C(NC(=O)c1cccc([N+](=O)[O-])c1)C(N)=O` (stereo unspecified), the cell number change was determined as 16.3%. Under setting [2], the AC50 is 32.6 µM [falling, single point]. As to `CCSc1nnc(NS(=O)(=O)c2ccc(C)cc2)s1`, the cell number change turned out to be 2.27%. Further, under setting [2], the AC50 was 0.651 µM [rising, partial curve, poor fit]. As to `O=C(Nc1ccc(Cl)c(-c2nc3ccccc3[nH]2)c1)c1cccnc1`, the half-maximal activity concentration (AC50) was 0.082 µM [rising, full curve] under setting [1] and 4.11 µM [rising, partial curve, poor fit] under setting [2]. For the compound `CCOC(=O)Nc1ccccc1C(=O)Nc1cc(C)cc(C)c1`, the cell number change was -17.2%. In addition, under setting [2], the concentration at half-maximal activity (AC50) is 16.4 µM [falling, single point]. Turning to `O=C(N/N=C/c1ccco1)c1ccccn1`, the cell number change is -4.6%. The AC50 under setting [2] is 6.51 µM [rising, single point]. Consider `Cc1cccc(N=Nc2c(C)[nH]n(-c3ccccc3)c2=O)c1`, for which the cell number change was -39.8%. For the same compound, under setting [1], the AC50 is 25.9 µM [falling, partial curve, poor fit]. Besides, the AC50 under setting [2] was 8.2 µM [falling, partial curve]. As to `COc1ccc(OC)c(C2CC(=O)NC(SC)=C2C#N)c1` (stereo unspecified), the cell number change came out at 30.5%. For the same compound, under setting [1], the AC50 was 2.59 µM [rising, single point]. Moreover, the AC50 under setting [2] was 2.31 µM [rising, partial curve, poor fit]. For the compound `CCOc1ccc(N(CC(=O)N2CCOCC2)S(=O)(=O)c2ccc(F)cc2)cc1`, the cell number change was -31.7%. Further, the AC50 under setting [1] was 18.4 µM [falling, partial curve, poor fit]. For the same compound, the AC50 under setting [2] was 6.51 µM [rising, single point].

For the compound `COc1cc2[nH]c(=S)n(NC(=O)c3ccccc3)c(=O)c2cc1OC`, the cell number change was determined as 33.2%. In addition, under setting [1], the AC50 is 3.66 µM [rising, partial curve].

In the case of `O=C(OCC(=O)N1CCCCC1)c1cc2ccccc2cc1O`, the cell number change is -3.65%. `CCn1cc(C(=O)O)c(=O)c2cc(F)c(N3CCNCC3)cc21`: the cell number change is -48.5%. In addition, the AC50 under setting [1] was 18.4 µM [falling, single point]. In addition, the AC50 under setting [2] was 3.26 µM [falling, partial curve, poor fit]. For `O=P(COCCOCP(=O)(c1ccccc1)c1ccccc1)(c1ccccc1)c1ccccc1`, the cell number change came to 22.2%. Besides, under setting [2], the half-maximal activity concentration (AC50) was 20.6 µM [rising, partial curve].

With `COc1cccc(Oc2cnc(N)nc2-c2ccc(OC)cc2O)c1`, the AC50 under setting [2] is 6.51 µM [rising, single point].

On to `N#Cc1c(-c2ccccc2Cl)cc(-c2ccccc2)nc1Br`, for which the cell number change was -28%. The AC50 under setting [2] is 29.1 µM [falling, single point]. Consider `COC(=O)c1ccccc1NC(=O)c1ccc(NC(=O)C2CCCO2)cc1` (stereo unspecified), for which the cell number change was -41.7%. Besides, under setting [1], the AC50 is 16.4 µM [falling, partial curve]. For the same compound, the AC50 under setting [2] was 0.58 µM [falling, full curve, poor fit].

For `O=C(CN1CCCC1)Nc1nc(-c2ccc3c(c2)CCN3C(=O)c2ccccc2F)cs1`, the cell number change came to 3.85%.

Regarding `O=C(C(NS(=O)(=O)c1cccs1)c1ccccc1)N1CCN(c2ccccc2)CC1` (stereo unspecified), the cell number change is -2.59%. For the same compound, the AC50 under setting [2] was 18.4 µM [falling, partial curve, poor fit]. With `COc1ccc2[nH]cc(/C=C/C(=O)c3ccccc3)c2c1`, the cell number change was -37.4%. In addition, the AC50 under setting [1] was 6.51 µM [falling, full curve]. The concentration at half-maximal activity (AC50) under setting [2] was 6.51 µM [falling, full curve]. As for `Cc1ccccc1-c1nc(CN2CCC(C(=O)N3CCN(c4ccccn4)CC3)CC2)c(C)o1`, the cell number change turned out to be 25.5%. Moreover, the AC50 under setting [1] is 2.31 µM [rising, full curve, poor fit]. Under setting [2], the AC50 was 0.517 µM [rising, single point].

As for `O=C(CN1CCN(C(=O)c2ccccc2)CC1)Nc1ccccc1`, the AC50 under setting [2] was 29.1 µM [rising, single point].

Regarding `C=CC(C)Sc1nc2c(c(=O)n(C)c(=O)n2C)n1Cc1ccccc1Cl` (stereo unspecified), the AC50 under setting [2] was 2.31 µM [rising, partial curve]. In the case of `Cc1ccc2c(c1)c(CC(=O)Nc1ccc(F)cc1)c(C(=O)O)n2C`, the cell number change is -6.39%. Under setting [2], the AC50 was 5.8 µM [falling, partial curve, poor fit]. For `COc1ccc(Cl)cc1S(=O)(=O)N1CCN=C1c1ccccc1`, the cell number change is 2.79%. In addition, under setting [2], the AC50 is 6.51 µM [falling, single point]. As for `CN1CCN(C(=O)c2ccc(Cl)cc2)CC1`, the cell number change was determined as 10.3%. In addition, under setting [2], the AC50 is 16.4 µM [rising, partial curve].

As to `c1ccc(C2CCC3(CC2)Oc2ccccc2C2CC(c4cccnc4)=NN23)cc1` (stereo unspecified), the cell number change came out at 16.7%. Also, the AC50 under setting [1] was 0.259 µM [rising, full curve, poor fit].

`CCc1cc(=O)oc2cc(C)cc(OCC(=O)N3CCC(C(=O)O)CC3)c12`: the cell number change was -12.8%. For the same compound, the AC50 under setting [2] was 0.184 µM [falling, full curve, poor fit]. On to `C=C(C)C1CC=C(C)/C(=N/NC(=O)c2ccc(NC(=O)c3cccc(C)c3)cc2)C1` (stereo unspecified), for which the cell number change is 4.89%. The AC50 under setting [2] was 29.1 µM [falling, partial curve, poor fit].

On to `Cc1ccc(N2CCN(C(=O)N3CCCC3)CC2)cc1Cl`, for which the AC50 was 2.31 µM [rising, partial curve] under setting [1] and 3.66 µM [rising, partial curve] under setting [2].

For `O=C(Nc1nccs1)c1ccc(CSc2nnnn2-c2ccccc2)cc1`, the cell number change was -1.57%. Moreover, the AC50 under setting [2] is 0.13 µM [rising, full curve]. With `C=C(Cl)COC(=O)[C@H]1C2C=CC(C2)C1C(=O)O` (stereo partly specified), the cell number change is -41.7%. Also, the AC50 under setting [1] is 7.31 µM [falling, partial curve]. For the same compound, the half-maximal activity concentration (AC50) under setting [2] is 18.4 µM [falling, partial curve]. With `O=C(O)/C=C/c1cn(Cc2ccccc2Cl)nc1-c1ccccc1`, the cell number change was 19.9%. Besides, the half-maximal activity concentration (AC50) under setting [2] was 0.651 µM [rising, full curve, poor fit]. Take `CCC(=O)Nc1cccc(C(=O)/C=C/c2cccs2)c1`: the cell number change stood at 0.955%. As for `Cc1cc(C(=O)NNC(=O)COc2c(C)cc(Br)cc2C)n[nH]1`, the cell number change was found to be 9.65%. Moreover, under setting [2], the concentration at half-maximal activity (AC50) is 16.4 µM [rising, partial curve, poor fit]. Turning to `CC(C)c1cccc(-c2ccc3c(c2)S(=O)(=O)c2cccc(C(=O)O)c2C3=O)c1`, the cell number change turned out to be 16%. For the same compound, the AC50 under setting [2] was 23.1 µM [rising, single point]. Turning to `CC1(C)C(=O)OC(c2c3ccccc3cc3ccccc23)C(C)(C)C1=O` (stereo unspecified), the cell number change is 2.35%. Further, under setting [2], the AC50 was 0.731 µM [falling, single point].

Turning to `CCN(CC(=O)Nc1ccccc1C(F)(F)F)C(=O)Cn1c(=O)cnc2ccccc21`, the cell number change is -23.3%. Moreover, the AC50 under setting [1] was 0.651 µM [falling, full curve, poor fit]. As to `CCOC(=O)c1c(C)[nH]c(N=Nc2ccccc2Cl)c1C`, the cell number change was -35.3%. For the same compound, the AC50 under setting [1] was 8.2 µM [falling, partial curve]. For the same compound, the AC50 under setting [2] is 7.31 µM [falling, partial curve]. Consider `CC(CC(=O)N1CCN(S(=O)(=O)c2ccc(Cl)cc2)CC1)n1cncn1` (stereo unspecified), for which the cell number change amounted to 2.7%.
